{"sequences": {"note": "Sequences of proteins named here, by UniProt entry; tags and fusion partners are left off. A change or cut given only in a name is not applied to a line headed by its entry.", "UniProt P30520": "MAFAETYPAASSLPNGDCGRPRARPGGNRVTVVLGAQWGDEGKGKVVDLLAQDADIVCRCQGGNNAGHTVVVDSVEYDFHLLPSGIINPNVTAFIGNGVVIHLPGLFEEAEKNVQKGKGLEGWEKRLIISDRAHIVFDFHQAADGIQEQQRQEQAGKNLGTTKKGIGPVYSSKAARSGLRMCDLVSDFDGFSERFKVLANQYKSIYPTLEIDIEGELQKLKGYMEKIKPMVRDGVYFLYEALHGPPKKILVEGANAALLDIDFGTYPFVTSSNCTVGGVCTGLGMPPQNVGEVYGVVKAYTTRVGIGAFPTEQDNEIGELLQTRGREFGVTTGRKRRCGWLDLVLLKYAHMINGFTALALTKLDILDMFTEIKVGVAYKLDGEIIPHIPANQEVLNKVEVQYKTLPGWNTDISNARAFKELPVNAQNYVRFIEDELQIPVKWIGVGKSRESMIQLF", "UniProt P05091": "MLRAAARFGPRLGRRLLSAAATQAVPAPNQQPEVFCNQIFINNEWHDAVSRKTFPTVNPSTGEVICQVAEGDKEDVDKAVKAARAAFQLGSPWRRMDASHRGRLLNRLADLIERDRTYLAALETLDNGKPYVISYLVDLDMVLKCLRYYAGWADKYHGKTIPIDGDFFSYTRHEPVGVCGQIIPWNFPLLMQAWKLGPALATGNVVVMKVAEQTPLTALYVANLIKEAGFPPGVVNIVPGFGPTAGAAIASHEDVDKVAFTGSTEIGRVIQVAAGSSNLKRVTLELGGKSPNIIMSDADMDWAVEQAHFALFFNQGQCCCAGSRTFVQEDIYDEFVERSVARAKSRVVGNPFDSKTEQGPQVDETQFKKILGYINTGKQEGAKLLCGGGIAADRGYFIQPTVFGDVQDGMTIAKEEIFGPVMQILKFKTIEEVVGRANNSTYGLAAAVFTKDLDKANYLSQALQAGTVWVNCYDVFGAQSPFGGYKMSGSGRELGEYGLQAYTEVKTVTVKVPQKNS", "UniProt Q9H1A4, whole entry, looked up": "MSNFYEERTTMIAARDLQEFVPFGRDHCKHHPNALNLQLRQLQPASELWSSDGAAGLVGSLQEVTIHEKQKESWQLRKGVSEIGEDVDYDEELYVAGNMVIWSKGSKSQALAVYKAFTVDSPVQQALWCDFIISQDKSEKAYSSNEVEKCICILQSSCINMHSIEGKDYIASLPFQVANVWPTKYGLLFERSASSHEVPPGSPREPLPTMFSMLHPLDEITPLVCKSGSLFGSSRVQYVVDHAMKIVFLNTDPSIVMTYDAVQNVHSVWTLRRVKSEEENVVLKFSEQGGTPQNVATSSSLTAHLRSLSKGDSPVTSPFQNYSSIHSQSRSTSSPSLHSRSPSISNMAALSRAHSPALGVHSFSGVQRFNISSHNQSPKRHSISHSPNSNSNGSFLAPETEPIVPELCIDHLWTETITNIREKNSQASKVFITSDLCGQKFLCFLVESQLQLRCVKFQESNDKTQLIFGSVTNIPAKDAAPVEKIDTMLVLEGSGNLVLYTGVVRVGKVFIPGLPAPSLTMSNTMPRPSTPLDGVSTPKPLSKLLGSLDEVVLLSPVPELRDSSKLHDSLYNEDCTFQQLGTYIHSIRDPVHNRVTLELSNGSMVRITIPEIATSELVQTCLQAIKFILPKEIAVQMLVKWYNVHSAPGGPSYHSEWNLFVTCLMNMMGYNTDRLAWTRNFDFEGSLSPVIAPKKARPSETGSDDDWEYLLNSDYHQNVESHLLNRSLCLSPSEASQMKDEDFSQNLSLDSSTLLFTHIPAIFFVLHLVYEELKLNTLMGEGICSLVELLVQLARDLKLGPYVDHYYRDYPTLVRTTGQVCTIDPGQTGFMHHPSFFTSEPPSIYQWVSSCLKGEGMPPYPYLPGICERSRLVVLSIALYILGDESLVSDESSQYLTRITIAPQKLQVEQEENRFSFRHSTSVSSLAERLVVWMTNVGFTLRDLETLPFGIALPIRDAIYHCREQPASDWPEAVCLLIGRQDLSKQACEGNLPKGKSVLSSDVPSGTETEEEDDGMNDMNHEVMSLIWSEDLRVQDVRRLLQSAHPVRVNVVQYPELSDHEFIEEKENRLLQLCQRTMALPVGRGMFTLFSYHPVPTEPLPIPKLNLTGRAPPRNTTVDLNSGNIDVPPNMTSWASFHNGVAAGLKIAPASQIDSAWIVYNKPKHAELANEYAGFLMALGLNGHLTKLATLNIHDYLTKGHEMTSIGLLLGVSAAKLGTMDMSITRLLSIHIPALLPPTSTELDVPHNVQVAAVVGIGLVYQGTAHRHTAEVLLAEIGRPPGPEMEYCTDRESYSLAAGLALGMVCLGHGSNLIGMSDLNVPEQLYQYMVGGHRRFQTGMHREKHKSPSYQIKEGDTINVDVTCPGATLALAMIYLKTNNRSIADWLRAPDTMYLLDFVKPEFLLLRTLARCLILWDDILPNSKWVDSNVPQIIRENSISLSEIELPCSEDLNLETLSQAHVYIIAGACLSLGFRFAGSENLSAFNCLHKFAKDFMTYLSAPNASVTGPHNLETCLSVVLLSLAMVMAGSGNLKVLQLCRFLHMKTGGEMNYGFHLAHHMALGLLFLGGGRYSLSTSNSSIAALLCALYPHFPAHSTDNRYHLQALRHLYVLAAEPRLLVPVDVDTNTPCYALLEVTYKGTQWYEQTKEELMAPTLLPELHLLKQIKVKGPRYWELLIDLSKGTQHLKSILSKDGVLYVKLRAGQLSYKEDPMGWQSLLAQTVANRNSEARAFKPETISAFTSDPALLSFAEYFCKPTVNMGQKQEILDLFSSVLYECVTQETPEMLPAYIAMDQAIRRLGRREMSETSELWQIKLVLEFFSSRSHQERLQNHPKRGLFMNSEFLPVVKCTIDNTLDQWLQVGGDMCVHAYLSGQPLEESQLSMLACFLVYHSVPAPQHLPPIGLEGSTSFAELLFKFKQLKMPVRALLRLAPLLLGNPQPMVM", "UniProt Q9UIJ7": "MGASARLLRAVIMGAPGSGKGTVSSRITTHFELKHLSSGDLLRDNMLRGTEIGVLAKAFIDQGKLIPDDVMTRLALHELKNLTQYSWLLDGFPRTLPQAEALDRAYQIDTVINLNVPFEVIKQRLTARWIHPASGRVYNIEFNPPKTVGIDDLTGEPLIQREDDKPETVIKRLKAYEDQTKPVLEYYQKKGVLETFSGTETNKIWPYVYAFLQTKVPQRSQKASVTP", "UniProt P30837": "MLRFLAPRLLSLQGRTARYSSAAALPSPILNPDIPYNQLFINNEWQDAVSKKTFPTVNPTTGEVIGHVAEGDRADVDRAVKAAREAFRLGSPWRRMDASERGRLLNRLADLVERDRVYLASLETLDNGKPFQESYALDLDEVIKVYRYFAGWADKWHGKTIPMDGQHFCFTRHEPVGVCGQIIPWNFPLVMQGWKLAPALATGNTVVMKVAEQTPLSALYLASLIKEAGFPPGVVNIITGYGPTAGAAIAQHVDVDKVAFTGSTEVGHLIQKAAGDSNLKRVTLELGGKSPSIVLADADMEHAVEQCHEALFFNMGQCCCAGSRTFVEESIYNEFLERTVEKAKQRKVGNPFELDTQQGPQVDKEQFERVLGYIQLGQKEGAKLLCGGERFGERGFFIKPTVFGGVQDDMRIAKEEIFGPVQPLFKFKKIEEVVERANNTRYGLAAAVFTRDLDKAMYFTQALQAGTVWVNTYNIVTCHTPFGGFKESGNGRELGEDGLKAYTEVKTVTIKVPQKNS", "UniProt Q6NS38": "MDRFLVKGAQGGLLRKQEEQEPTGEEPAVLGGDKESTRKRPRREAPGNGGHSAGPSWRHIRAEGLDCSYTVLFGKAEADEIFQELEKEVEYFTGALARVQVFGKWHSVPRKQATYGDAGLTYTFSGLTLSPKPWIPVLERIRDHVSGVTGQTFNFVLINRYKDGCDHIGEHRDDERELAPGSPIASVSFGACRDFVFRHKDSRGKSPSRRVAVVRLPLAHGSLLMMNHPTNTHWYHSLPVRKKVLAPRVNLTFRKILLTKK", "UniProt Q9UEY8": "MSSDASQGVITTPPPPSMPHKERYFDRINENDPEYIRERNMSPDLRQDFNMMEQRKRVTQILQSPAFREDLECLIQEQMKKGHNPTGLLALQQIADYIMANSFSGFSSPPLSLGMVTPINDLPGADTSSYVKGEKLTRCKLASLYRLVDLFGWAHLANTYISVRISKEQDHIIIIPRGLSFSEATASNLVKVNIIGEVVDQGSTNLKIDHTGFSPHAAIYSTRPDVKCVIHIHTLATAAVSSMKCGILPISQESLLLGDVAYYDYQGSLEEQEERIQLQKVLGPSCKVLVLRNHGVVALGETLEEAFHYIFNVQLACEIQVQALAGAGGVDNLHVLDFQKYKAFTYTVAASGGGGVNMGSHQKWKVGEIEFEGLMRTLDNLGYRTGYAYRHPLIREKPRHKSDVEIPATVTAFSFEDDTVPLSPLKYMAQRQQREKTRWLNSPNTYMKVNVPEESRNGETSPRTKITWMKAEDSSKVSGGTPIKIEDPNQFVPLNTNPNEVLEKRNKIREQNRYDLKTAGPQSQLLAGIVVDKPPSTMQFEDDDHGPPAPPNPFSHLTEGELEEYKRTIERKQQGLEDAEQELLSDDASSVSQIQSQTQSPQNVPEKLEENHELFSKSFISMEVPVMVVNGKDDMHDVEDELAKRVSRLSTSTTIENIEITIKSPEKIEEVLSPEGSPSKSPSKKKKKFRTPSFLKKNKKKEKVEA", "UniProt Q9Y673": "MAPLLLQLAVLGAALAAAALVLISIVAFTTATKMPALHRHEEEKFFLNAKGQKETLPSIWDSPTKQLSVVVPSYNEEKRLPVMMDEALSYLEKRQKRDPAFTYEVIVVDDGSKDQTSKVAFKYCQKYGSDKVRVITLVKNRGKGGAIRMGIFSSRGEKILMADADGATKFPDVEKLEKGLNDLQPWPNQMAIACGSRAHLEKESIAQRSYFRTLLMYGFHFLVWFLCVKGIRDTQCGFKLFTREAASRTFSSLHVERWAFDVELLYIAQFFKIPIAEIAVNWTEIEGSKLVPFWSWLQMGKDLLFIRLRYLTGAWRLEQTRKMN", "UniProt O43823": "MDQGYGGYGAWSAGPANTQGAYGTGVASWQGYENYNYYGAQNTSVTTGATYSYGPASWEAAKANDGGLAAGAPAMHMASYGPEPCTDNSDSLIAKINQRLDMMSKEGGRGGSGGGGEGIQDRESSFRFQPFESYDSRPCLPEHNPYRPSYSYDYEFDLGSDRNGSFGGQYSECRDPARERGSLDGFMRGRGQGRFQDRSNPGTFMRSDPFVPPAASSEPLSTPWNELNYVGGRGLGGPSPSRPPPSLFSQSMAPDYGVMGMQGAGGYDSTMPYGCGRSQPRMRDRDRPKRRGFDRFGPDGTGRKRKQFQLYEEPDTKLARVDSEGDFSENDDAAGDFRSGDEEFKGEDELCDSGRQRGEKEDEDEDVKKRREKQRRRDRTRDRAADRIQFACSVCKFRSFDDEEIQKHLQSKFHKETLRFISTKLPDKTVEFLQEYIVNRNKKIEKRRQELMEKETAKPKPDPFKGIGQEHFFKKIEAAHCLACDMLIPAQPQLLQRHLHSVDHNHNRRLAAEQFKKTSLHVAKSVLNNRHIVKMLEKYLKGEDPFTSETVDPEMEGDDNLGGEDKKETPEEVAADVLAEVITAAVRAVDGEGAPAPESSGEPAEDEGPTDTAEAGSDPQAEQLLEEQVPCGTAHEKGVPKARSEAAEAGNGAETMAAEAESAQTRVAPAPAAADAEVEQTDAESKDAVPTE", "UniProt O95831, whole entry, looked up": "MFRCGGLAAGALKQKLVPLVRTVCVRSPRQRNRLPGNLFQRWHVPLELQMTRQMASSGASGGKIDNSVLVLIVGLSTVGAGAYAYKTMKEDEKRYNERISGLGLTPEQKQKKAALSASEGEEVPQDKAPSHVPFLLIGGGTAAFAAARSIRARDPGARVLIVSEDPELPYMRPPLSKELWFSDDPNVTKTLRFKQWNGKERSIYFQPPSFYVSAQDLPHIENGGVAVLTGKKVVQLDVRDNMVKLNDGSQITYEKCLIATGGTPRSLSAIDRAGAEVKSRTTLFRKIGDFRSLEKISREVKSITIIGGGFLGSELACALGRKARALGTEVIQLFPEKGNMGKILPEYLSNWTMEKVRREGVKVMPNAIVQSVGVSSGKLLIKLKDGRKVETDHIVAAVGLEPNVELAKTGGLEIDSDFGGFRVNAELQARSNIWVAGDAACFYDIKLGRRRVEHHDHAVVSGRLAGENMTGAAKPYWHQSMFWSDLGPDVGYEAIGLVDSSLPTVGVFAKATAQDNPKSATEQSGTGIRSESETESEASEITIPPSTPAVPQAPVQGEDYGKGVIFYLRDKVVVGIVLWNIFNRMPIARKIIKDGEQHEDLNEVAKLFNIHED"}, "source": "the supplement of paper PMC10849652", "note": "Some of the results follow.", "data": [{"compound": "NC(=O)c1cnc(N[C@@H]2CCCC[C@@H]2N)nc1Nc1cccc(-n2nccn2)c1", "assay": "log2 fold change, soluble protein after heating vs DMSO (PISA); higher = thermal stabilisation; K562 cells, 10 uM, 30 min; active = over 0.2 and 3.5 SD of the protein, either way, in both replicates (recomputed)", "outline": "(§1)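 K562 cells at 2×10^6 cells/mL were treated for 30 min with 10 μM compound, and aliquots were heated for 3 min over 48°C-58°C before pooling. Extraction used PBS with 0.5% NP-40 at 4°C, and soluble protein was the supernatant after 21,000xg for 90 min, measured by TMTpro 16plex LC-MS/MS with channel sums equalised. Thermal stability values, relative to control samples and from duplicates, are log2 fold changes.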", "values": [{"target": "ADSS2 (UniProt P30520)", "log2 fold change": "inactive: -0.056"}, {"target": "ADPRHL2 (UniProt Q9NX46)", "log2 fold change": "inactive: -0.02"}, {"target": "ALDH2 (UniProt P05091)", "log2 fold change": "inactive: -0.039"}, {"target": "AKR7A2 (UniProt O43488)", "log2 fold change": "inactive: 0.084"}, {"target": "ADD2 (UniProt P35612)", "log2 fold change": "inactive: 0.039"}, {"target": "AKR1B1 (UniProt P15121)", "log2 fold change": "inactive: -0.026"}, {"target": "AKAP8L (UniProt Q9ULX6)", "log2 fold change": "inactive: 0.153"}, {"target": "ANAPC1 (UniProt Q9H1A4)", "log2 fold change": "inactive: -0.032"}, {"target": "AK3 (UniProt Q9UIJ7)", "log2 fold change": "inactive: -0.056"}, {"target": "ALDH1B1 (UniProt P30837)", "log2 fold change": "inactive: -0.039"}, {"target": "AKT1S1 isoform 3 (UniProt Q96B36)", "log2 fold change": "inactive: -0.047"}, {"target": "AFDN isoform 5 (UniProt P55196)", "log2 fold change": "inactive: -0.009"}, {"target": "AGPAT1 (UniProt Q99943)", "log2 fold change": "inactive: -0.022"}, {"target": "ALKBH6 isoform 2 (UniProt Q3KRA9)", "log2 fold change": "inactive: -0.038"}, {"target": "ALDH6A1 (UniProt Q02252)", "log2 fold change": "inactive: 0.034"}, {"target": "ALKBH2 (UniProt Q6NS38)", "log2 fold change": "inactive: 0.087"}, {"target": "ALG9 isoform 3 (UniProt Q9H6U8)", "log2 fold change": "inactive: -0.033"}, {"target": "AIP (UniProt O00170)", "log2 fold change": "inactive: 0.011"}, {"target": "ALDH1L2 (UniProt Q3SY69)", "log2 fold change": "inactive: -0.003"}, {"target": "AGPS (UniProt O00116)", "log2 fold change": "inactive: 0.007"}, {"target": "AKIRIN2 (UniProt Q53H80)", "log2 fold change": "inactive: -0.055"}, {"target": "AGL (UniProt P35573)", "log2 fold change": "inactive: -0.07"}, {"target": "ADD3 (UniProt Q9UEY8)", "log2 fold change": "inactive: -0.014"}, {"target": "ALG5 (UniProt Q9Y673)", "log2 fold change": "inactive: -0.129"}, {"target": "ADK (UniProt P55263)", "log2 fold change": "inactive: 0.07"}, {"target": "AKAP8 (UniProt O43823)", "log2 fold change": "inactive: -0.037"}, {"target": "AHCY (UniProt P23526)", "log2 fold change": "inactive: 0.016"}, {"target": "AIFM1 (UniProt O95831)", "log2 fold change": "inactive: -0.03"}, {"target": "ALG6 (UniProt Q9Y672)", "log2 fold change": "inactive: -0.028"}, {"target": "ALDOA isoform 2 (UniProt P04075)", "log2 fold change": "inactive: 0.009"}, {"target": "AHCYL2 (UniProt Q96HN2)", "log2 fold change": "inactive: 0.032"}, {"target": "ADSS1 (UniProt Q8N142)", "log2 fold change": "inactive: -0.038"}, {"target": "AHCYL1 (UniProt O43865)", "log2 fold change": "inactive: 0.106"}]}, {"compound": "NC1(c2ccc(-c3nc4ccn5c(=O)[nH]nc5c4cc3-c3ccccc3)cc2)CCC1", "assay": "log2 fold change, soluble protein after heating vs DMSO (PISA); higher = thermal stabilisation; K562 cells, 10 uM, 30 min; active = over 0.2 and 3.5 SD of the protein, either way, in both replicates (recomputed)", "outline": "as §1", "values": [{"target": "ADSS2 (UniProt P30520)", "log2 fold change": "inactive: -0.025"}, {"target": "ADPRHL2 (UniProt Q9NX46)", "log2 fold change": "inactive: -0.056"}, {"target": "ALDH2 (UniProt P05091)", "log2 fold change": "inactive: -0.046"}, {"target": "AKR7A2 (UniProt O43488)", "log2 fold change": "inactive: -0.017"}, {"target": "ADD2 (UniProt P35612)", "log2 fold change": "inactive: 0.036"}, {"target": "AKR1B1 (UniProt P15121)", "log2 fold change": "inactive: 0"}, {"target": "AKAP8L (UniProt Q9ULX6)", "log2 fold change": "inactive: -0.063"}, {"target": "ANAPC1 (UniProt Q9H1A4)", "log2 fold change": "inactive: -0.07"}, {"target": "AK3 (UniProt Q9UIJ7)", "log2 fold change": "inactive: -0.033"}, {"target": "ALDH1B1 (UniProt P30837)", "log2 fold change": "inactive: -0.065"}, {"target": "AKT1S1 isoform 3 (UniProt Q96B36)", "log2 fold change": "inactive: 0.127"}, {"target": "AFDN isoform 5 (UniProt P55196)", "log2 fold change": "inactive: -0.099"}, {"target": "AGPAT1 (UniProt Q99943)", "log2 fold change": "inactive: 0.018"}, {"target": "ALKBH6 isoform 2 (UniProt Q3KRA9)", "log2 fold change": "inactive: -0.024"}, {"target": "ALDH6A1 (UniProt Q02252)", "log2 fold change": "inactive: -0.045"}, {"target": "ALKBH2 (UniProt Q6NS38)", "log2 fold change": "inactive: 0.293"}, {"target": "ALG9 isoform 3 (UniProt Q9H6U8)", "log2 fold change": "inactive: -0.036"}, {"target": "AIP (UniProt O00170)", "log2 fold change": "inactive: -0.128"}, {"target": "ALDH1L2 (UniProt Q3SY69)", "log2 fold change": "inactive: -0.094"}, {"target": "AGPS (UniProt O00116)", "log2 fold change": "inactive: -0.112"}, {"target": "AKIRIN2 (UniProt Q53H80)", "log2 fold change": "inactive: -0.132"}, {"target": "AGL (UniProt P35573)", "log2 fold change": "inactive: 0.085"}, {"target": "ADD3 (UniProt Q9UEY8)", "log2 fold change": "inactive: 0.047"}, {"target": "ALG5 (UniProt Q9Y673)", "log2 fold change": "inactive: -0.029"}, {"target": "ADK (UniProt P55263)", "log2 fold change": "inactive: 0.12"}, {"target": "AKAP8 (UniProt O43823)", "log2 fold change": "inactive: 0.023"}, {"target": "AHCY (UniProt P23526)", "log2 fold change": "inactive: 0.059"}, {"target": "AIFM1 (UniProt O95831)", "log2 fold change": "inactive: -0.007"}, {"target": "ALG6 (UniProt Q9Y672)", "log2 fold change": "inactive: -0.201"}, {"target": "ALDOA isoform 2 (UniProt P04075)", "log2 fold change": "inactive: 0.049"}, {"target": "AHCYL2 (UniProt Q96HN2)", "log2 fold change": "inactive: 0.014"}, {"target": "ADSS1 (UniProt Q8N142)", "log2 fold change": "inactive: -0.056"}, {"target": "AHCYL1 (UniProt O43865)", "log2 fold change": "inactive: 0.003"}]}, {"compound": "NCC(=O)Nc1ccc(-n2nc(C(F)(F)F)cc2-c2ccc3c(ccc4ccccc43)c2)cc1", "assay": "log2 fold change, soluble protein after heating vs DMSO (PISA); higher = thermal stabilisation; K562 cells, 10 uM, 30 min; active = over 0.2 and 3.5 SD of the protein, either way, in both replicates (recomputed)", "outline": "as §1", "values": [{"target": "ADSS2 (UniProt P30520)", "log2 fold change": "inactive: -0.035"}, {"target": "ADPRHL2 (UniProt Q9NX46)", "log2 fold change": "inactive: -0.045"}, {"target": "ALDH2 (UniProt P05091)", "log2 fold change": "inactive: -0.016"}, {"target": "AKR7A2 (UniProt O43488)", "log2 fold change": "inactive: 0.069"}, {"target": "ADD2 (UniProt P35612)", "log2 fold change": "inactive: 0.024"}, {"target": "AKR1B1 (UniProt P15121)", "log2 fold change": "inactive: -0.02"}, {"target": "AKAP8L (UniProt Q9ULX6)", "log2 fold change": "inactive: -0.098"}, {"target": "ANAPC1 (UniProt Q9H1A4)", "log2 fold change": "inactive: -0.009"}, {"target": "AK3 (UniProt Q9UIJ7)", "log2 fold change": "inactive: -0.038"}, {"target": "ALDH1B1 (UniProt P30837)", "log2 fold change": "inactive: -0.054"}, {"target": "AKT1S1 isoform 3 (UniProt Q96B36)", "log2 fold change": "inactive: -0.006"}, {"target": "AFDN isoform 5 (UniProt P55196)", "log2 fold change": "inactive: -0.025"}, {"target": "AGPAT1 (UniProt Q99943)", "log2 fold change": "inactive: -0.012"}, {"target": "ALKBH6 isoform 2 (UniProt Q3KRA9)", "log2 fold change": "inactive: 0.067"}, {"target": "ALDH6A1 (UniProt Q02252)", "log2 fold change": "inactive: -0.116"}, {"target": "ALKBH2 (UniProt Q6NS38)", "log2 fold change": "inactive: 0.04"}, {"target": "ALG9 isoform 3 (UniProt Q9H6U8)", "log2 fold change": "inactive: -0.016"}, {"target": "AIP (UniProt O00170)", "log2 fold change": "inactive: 0.018"}, {"target": "ALDH1L2 (UniProt Q3SY69)", "log2 fold change": "inactive: 0.063"}, {"target": "AGPS (UniProt O00116)", "log2 fold change": "inactive: 0"}, {"target": "AKIRIN2 (UniProt Q53H80)", "log2 fold change": "inactive: -0.087"}, {"target": "AGL (UniProt P35573)", "log2 fold change": "inactive: 0.003"}, {"target": "ADD3 (UniProt Q9UEY8)", "log2 fold change": "inactive: -0.001"}, {"target": "ALG5 (UniProt Q9Y673)", "log2 fold change": "inactive: -0.031"}, {"target": "ADK (UniProt P55263)", "log2 fold change": "inactive: -0.04"}, {"target": "AKAP8 (UniProt O43823)", "log2 fold change": "inactive: -0.012"}, {"target": "AHCY (UniProt P23526)", "log2 fold change": "inactive: 0.032"}, {"target": "AIFM1 (UniProt O95831)", "log2 fold change": "inactive: -0.021"}, {"target": "ALG6 (UniProt Q9Y672)", "log2 fold change": "inactive: -0.02"}, {"target": "ALDOA isoform 2 (UniProt P04075)", "log2 fold change": "inactive: 0.052"}, {"target": "AHCYL2 (UniProt Q96HN2)", "log2 fold change": "inactive: 0.01"}, {"target": "ADSS1 (UniProt Q8N142)", "log2 fold change": "inactive: -0.048"}, {"target": "AHCYL1 (UniProt O43865)", "log2 fold change": "inactive: 0.046"}]}]}
